Experimental data published in the supplement of paper PMC10849652.
The other results are listed elsewhere or left out.

Chains of the proteins cited; added tags and fusions are not shown. Lines headed by an entry give the natural chain unless they say otherwise; changes in a name come on top.
UniProt O75037: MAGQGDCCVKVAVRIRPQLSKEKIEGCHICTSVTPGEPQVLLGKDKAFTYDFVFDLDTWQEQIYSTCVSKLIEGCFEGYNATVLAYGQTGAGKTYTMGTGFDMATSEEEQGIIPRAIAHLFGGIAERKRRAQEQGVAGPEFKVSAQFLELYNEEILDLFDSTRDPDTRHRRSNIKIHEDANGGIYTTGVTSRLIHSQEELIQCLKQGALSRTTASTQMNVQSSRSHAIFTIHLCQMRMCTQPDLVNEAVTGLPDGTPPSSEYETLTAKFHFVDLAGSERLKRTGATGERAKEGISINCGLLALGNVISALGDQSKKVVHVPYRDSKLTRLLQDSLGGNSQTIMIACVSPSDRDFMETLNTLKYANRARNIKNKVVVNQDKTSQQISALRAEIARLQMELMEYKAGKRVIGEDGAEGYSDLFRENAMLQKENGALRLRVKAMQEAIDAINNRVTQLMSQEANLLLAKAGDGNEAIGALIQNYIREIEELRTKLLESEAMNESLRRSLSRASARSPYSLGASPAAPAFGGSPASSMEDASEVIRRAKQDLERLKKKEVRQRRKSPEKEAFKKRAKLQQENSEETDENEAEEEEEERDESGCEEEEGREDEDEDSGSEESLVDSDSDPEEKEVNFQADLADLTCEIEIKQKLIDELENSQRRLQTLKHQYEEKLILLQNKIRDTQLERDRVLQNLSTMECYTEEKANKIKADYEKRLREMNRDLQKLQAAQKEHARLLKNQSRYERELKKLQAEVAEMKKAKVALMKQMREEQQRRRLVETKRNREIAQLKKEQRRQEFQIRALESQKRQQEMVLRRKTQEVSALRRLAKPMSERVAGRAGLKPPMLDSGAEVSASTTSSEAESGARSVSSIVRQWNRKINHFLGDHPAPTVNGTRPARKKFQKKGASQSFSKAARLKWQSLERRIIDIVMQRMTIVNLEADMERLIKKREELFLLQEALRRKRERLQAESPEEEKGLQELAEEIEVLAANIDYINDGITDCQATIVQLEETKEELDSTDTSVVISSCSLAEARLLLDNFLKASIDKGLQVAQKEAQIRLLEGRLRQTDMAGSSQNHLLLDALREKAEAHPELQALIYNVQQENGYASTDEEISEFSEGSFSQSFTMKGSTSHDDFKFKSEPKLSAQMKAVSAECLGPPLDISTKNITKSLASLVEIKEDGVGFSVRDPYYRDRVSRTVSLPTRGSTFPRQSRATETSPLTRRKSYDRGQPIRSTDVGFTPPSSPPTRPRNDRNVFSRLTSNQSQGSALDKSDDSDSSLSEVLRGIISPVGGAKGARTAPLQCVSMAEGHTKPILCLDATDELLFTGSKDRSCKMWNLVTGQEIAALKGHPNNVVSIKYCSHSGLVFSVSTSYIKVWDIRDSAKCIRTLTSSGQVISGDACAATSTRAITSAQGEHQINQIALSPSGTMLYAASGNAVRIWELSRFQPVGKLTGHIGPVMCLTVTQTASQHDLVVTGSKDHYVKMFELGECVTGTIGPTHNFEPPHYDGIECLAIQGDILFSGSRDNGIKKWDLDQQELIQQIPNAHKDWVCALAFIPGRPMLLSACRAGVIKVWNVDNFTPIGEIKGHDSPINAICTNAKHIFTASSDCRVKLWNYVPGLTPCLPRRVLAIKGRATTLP
UniProt O43731: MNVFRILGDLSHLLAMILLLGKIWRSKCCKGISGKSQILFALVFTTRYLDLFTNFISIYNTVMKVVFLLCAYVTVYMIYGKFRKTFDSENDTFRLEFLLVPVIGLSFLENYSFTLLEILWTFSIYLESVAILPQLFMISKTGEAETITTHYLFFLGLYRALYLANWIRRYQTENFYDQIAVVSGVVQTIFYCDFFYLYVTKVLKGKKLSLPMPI
UniProt Q15058: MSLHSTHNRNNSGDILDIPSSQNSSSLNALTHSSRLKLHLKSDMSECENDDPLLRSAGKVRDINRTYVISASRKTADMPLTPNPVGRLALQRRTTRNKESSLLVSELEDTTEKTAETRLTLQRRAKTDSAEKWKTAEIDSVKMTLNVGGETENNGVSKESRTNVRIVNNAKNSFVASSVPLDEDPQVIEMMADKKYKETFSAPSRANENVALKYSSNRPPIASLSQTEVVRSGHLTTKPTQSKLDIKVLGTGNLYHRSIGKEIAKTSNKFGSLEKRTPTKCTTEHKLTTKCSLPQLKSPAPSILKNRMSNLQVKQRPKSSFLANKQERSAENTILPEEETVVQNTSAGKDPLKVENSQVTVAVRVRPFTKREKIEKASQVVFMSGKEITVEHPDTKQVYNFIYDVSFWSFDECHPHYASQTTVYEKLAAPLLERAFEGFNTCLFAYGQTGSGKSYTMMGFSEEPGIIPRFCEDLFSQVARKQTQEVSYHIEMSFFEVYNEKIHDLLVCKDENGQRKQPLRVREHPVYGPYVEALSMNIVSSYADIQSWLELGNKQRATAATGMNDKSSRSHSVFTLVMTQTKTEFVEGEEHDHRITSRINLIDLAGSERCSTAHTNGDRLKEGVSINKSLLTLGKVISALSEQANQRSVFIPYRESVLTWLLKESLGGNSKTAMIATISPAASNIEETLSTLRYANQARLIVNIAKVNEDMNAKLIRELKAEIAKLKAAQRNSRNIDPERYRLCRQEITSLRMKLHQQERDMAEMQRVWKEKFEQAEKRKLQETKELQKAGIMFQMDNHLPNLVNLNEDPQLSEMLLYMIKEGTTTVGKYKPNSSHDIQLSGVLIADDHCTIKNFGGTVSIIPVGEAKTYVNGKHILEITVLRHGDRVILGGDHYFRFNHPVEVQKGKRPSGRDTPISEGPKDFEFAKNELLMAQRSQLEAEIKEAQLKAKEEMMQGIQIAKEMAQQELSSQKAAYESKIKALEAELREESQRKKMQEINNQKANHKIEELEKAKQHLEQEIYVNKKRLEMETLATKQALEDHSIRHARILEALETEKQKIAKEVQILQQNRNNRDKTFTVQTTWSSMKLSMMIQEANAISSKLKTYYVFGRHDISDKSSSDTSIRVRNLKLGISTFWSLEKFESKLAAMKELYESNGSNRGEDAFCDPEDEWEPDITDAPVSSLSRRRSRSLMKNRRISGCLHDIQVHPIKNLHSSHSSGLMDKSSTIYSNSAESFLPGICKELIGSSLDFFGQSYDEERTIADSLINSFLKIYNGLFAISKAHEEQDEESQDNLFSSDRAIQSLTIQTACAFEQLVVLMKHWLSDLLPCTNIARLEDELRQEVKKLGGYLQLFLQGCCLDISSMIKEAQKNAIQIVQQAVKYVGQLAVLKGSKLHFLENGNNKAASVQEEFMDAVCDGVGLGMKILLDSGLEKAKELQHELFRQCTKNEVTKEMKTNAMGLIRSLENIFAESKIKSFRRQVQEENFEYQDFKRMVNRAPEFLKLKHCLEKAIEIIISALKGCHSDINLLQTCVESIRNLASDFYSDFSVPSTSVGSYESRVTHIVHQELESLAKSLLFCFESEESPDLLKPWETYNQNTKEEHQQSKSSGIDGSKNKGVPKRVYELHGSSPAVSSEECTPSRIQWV
UniProt Q12809: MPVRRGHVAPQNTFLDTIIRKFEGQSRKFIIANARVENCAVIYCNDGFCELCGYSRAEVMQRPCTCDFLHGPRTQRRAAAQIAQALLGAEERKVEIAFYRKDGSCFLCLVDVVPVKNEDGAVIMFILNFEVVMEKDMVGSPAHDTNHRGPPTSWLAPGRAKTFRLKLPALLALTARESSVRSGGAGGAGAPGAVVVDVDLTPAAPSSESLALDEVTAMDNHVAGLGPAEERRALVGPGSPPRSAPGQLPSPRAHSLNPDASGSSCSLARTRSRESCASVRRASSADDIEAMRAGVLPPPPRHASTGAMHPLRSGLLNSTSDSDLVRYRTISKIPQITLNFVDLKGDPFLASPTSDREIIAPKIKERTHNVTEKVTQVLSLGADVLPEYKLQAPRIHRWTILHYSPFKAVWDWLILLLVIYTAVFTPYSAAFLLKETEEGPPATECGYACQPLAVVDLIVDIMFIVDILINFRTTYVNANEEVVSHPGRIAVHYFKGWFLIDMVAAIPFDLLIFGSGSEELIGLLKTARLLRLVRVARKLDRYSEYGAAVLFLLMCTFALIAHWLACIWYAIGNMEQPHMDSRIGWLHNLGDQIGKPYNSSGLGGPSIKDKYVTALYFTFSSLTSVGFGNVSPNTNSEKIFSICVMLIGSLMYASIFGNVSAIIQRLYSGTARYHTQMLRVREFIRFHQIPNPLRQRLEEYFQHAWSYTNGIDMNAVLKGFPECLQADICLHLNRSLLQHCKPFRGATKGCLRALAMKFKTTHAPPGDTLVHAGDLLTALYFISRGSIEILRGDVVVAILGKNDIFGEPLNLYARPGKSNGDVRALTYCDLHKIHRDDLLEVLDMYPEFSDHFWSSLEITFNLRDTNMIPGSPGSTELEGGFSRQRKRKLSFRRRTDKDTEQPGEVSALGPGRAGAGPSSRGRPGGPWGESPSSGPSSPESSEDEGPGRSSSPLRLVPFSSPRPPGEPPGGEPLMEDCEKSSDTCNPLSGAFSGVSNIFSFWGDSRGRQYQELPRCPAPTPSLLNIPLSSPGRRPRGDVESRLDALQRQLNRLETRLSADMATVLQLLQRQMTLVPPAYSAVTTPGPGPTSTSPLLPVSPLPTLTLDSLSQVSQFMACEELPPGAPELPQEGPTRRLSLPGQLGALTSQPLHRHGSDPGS
UniProt Q7LBC6: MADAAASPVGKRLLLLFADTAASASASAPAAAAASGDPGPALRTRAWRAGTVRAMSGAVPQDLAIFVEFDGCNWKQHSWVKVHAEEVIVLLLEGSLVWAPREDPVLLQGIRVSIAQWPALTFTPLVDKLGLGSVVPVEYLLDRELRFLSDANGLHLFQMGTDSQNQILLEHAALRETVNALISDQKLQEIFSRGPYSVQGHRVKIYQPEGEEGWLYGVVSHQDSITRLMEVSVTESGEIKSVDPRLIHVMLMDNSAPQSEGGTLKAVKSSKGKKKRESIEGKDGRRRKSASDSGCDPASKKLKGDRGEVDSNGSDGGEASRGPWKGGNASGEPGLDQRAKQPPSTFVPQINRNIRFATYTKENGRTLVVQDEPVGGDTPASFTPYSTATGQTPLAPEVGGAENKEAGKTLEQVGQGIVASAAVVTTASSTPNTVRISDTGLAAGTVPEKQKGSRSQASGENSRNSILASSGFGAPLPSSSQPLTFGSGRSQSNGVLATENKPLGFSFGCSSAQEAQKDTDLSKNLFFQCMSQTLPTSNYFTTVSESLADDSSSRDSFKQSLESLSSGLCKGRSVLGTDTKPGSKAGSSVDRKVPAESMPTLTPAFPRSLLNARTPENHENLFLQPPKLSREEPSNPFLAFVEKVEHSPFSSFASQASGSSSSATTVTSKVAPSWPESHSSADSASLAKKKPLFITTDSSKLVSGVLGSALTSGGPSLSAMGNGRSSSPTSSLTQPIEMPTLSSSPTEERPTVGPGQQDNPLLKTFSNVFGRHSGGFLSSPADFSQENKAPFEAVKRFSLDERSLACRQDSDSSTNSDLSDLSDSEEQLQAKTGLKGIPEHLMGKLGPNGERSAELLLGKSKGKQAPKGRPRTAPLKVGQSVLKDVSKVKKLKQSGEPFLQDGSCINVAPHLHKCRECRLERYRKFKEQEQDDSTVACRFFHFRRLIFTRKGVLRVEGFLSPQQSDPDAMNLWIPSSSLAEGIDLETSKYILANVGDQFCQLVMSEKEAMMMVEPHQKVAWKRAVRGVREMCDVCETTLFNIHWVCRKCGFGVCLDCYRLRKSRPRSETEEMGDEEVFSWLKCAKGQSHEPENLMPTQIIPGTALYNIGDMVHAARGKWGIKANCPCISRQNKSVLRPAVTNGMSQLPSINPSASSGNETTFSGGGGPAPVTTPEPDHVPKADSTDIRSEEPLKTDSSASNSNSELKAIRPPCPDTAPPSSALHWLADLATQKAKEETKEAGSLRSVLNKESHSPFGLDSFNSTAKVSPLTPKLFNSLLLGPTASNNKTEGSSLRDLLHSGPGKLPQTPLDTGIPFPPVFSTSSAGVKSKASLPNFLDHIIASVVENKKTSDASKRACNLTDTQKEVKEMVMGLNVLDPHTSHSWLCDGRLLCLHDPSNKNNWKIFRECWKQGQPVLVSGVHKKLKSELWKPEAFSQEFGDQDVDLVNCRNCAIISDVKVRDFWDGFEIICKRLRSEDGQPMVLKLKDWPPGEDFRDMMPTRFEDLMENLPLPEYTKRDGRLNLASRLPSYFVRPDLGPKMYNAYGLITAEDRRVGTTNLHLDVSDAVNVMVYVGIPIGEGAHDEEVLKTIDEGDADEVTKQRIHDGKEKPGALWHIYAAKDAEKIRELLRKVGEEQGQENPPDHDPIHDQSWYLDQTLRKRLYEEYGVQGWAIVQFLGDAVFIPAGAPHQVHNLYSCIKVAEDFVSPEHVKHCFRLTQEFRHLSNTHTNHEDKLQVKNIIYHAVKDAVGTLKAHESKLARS

Legend:
Assay in all cases: log2 fold change, soluble protein after heating vs DMSO (PISA); higher = thermal stabilisation; K562 cells, 10 uM, 30 min; active = over 0.2 and 3.5 SD of the protein, either way, in both replicates (recomputed)
[1] = compound: C#Cc1cccc(Nc2ncnc3cc(OCCOC)c(OCCOC)cc23)c1 [erlotinib]
Summary of the method: (§1)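 K562 cells at 2×10^6 cells/mL were treated with 10 μM compound for 30 min. Aliquots were heated for 3 min across 48°C-58°C, pooled, and extracted in PBS with 0.5% NP-40 at 4°C; soluble protein was the supernatant after 21,000xg for 90 min. Soluble protein was quantified by TMTpro 16plex LC-MS/MS with channel sums equalised, and reported as log2 fold change in thermal stability against DMSO controls, with values from duplicates.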

[2] = compound: C1=CC(=C(C=C1Cl)C2=NC3=NC=CN=C3C(=N2)NC4=CC=NC=C4)F
Summary of the method: as §1

[3] = compound: C1=CC(=CC=C1C2=NC3=C(N2)C=C(C=C3)C(=O)N)OC4=CC=C(C=C4)Cl
Summary of the method: as §1

[4] = compound: C1=CC=C(C=C1)C2=NC(=C(N2)C3=CC=NC=C3)C4=CC(=C(C=C4)Cl)O
Summary of the method: as §1

[5] = compound: C/C(=N\NC(=O)C1=CC(=CC=C1)S(=O)(=O)N2CCOCC2)/C3=C(C=CC(=C3)Cl)O
Summary of the method: as §1

[6] = compound: C1=CC2=C(C=CC(=C2)/C=C\3/C(=O)NC(=NCC4=CC=CS4)S3)N=C1
Summary of the method: as §1

[7] = compound: C1=CC2=NC=CN=C2C=C1/C=C/3\C(=O)NC(=O)S3
Summary of the method: as §1

[8] = compound: C1=CC=C2C(=C1)C3=NNC4=CC=CC(=C43)C2=O
Summary of the method: as §1

[9] = compound: C1CCN(C1)C(=O)NC2=CC=CC(=C2)NC3=NC=C(C(=N3)NCCC4=CN=CN4)Br
Summary of the method: as §1

[10] = compound: C1CN(CCC1(CC2=CC=C(C=C2)Cl)N)C3=NC=NC4=C3C=CN4
Summary of the method: as §1

Measured: log2 fold change

KIF21B (UniProt O75037)
inactive: [1] 0.117 | [2] 0.022 | [3] -0.165 | [4] -0.039

KDELR3 (UniProt O43731)
inactive: [1] -0.067 | [5] -0.05 | [3] 0.049 | [6] 0.059 | [7] 0.139 | [8] -0.166 | [9] 0.066 | [10] -0.176

KSR2 (UniProt Q6VAB6)
inactive: [1] 0.033 | [2] -0.183 | [3] 0.086

KIFC3 isoform 6 (UniProt Q9BVG8)
inactive: [1] 0.154 | [2] -0.098 | [3] -0.025 | [7] 0.074 | [4] -0.227 | [9] 0.071 | [10] -0.06

KIAA1755 (UniProt Q5JYT7)
inactive: [1] -0.026 | [2] -0.166 | [3] -0.024 | [7] 0.08 | [4] -0.056 | [9] 0.094 | [10] 0.024

KIF13B (UniProt Q9NQT8)
inactive: [1] -0.031 | [5] 0.016 | [2] -0.033 | [3] 0.06 | [6] 0.095 | [7] -0.037 | [8] 0.086 | [9] 0.077 | [10] 0.021

KMT2E (UniProt Q8IZD2)
inactive: [1] 0.029 | [2] 0.005 | [3] 0.029

Two neighbouring records from above:
KIAA1755 (UniProt Q5JYT7)
inactive: [1] -0.026 | [2] -0.166 | [3] -0.024 | [7] 0.08 | [4] -0.056 | [9] 0.094 | [10] 0.024

KIF13B (UniProt Q9NQT8)
inactive: [1] -0.031 | [5] 0.016 | [2] -0.033 | [3] 0.06 | [6] 0.095 | [7] -0.037 | [8] 0.086 | [9] 0.077 | [10] 0.021

The list goes on:

KLHL7 (UniProt Q8IXQ5)
inactive: [1] 0.042 | [5] 0.069 | [2] 0.054 | [3] 0.014 | [6] 0.227 | [7] 0.001 | [8] -0.101

KIF14 (UniProt Q15058)
inactive: [1] 0.348 | [5] -0.254 | [2] -0.206 | [3] 0.169 | [6] 0.017 | [7] 0.128 | [8] 0.041

KCNH2 (UniProt Q12809)
inactive: [1] 0.057 | [2] -0.352 | [3] 0.054 | [7] -0.029 | [4] 0.188

KDM3B (UniProt Q7LBC6)
inactive: [1] 0.029 | [5] 0.051 | [2] 0.083 | [3] -0.019 | [6] 0 | [7] 0.043 | [4] 0.029 | [8] -0.015 | [9] -0.03 | [10] 0.008
